Laboratory results reported in US20160000851A1, “Bioactive Botanical Compositions and Uses Thereof” (AKZO NOBEL CHEMICALS INTERNATIONAL B.V., priority 2013, published 2016).
Converted amounts (≈) assume the structure as drawn.

Test system: IL-8
Assay: Inhibition of SDS-induced IL-8 release in human epidermal keratinocytes (ELISA)
Format: cell-based
Conditions: Keratinocyte, 16 h, read-out: Estimated IC50 for inhibition of SDS-induced IL-8 release

`C[S+]([O-])c1ccc(-c2nc(-c3ccncc3)c(-c3ccc(F)cc3)[nH]2)cc1` (stereo not shown) [SB203580] showed an IC50 of roughly 0.7 µg/mL (≈ 1.85 µM).
